This is an account of results in paper PMC11254670, “Soluble CD72, is a T-cell activator probably via binding to CD6 in homeostasis and autoimmunity” (Frontiers in Immunology, 2024).

Protein sequences, listed by entry. Tags and fused reporters are not part of them. Residues count along the entry.
UniProt Q92854, residues 22-862: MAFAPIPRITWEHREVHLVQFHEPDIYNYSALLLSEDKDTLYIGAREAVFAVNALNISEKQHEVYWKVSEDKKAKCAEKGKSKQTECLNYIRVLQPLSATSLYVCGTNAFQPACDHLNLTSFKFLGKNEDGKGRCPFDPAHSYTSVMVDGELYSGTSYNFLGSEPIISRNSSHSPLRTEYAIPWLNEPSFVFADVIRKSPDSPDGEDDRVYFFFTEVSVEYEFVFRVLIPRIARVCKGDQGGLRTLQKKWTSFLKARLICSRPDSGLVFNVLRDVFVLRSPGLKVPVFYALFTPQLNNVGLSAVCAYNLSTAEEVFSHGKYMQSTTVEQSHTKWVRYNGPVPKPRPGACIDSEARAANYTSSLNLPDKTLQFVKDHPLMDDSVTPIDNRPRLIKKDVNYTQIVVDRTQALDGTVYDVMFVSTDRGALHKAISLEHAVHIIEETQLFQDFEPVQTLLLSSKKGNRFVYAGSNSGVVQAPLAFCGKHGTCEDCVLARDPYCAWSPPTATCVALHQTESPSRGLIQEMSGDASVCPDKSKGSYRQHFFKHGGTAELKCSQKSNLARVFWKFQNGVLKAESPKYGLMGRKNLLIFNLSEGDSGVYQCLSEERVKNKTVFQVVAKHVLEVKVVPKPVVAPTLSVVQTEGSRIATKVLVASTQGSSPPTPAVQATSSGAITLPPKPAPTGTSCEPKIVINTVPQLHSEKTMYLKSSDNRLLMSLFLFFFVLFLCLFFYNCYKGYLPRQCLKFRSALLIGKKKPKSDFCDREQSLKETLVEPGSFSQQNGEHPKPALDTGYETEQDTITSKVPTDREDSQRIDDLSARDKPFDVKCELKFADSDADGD

Assay [1] addresses T1, soluble CD72 (extracellular part of human CD72, amino acids 117-359, V5 and 8xHis tagged) (human) (UniProt P21854).
T1 sequence: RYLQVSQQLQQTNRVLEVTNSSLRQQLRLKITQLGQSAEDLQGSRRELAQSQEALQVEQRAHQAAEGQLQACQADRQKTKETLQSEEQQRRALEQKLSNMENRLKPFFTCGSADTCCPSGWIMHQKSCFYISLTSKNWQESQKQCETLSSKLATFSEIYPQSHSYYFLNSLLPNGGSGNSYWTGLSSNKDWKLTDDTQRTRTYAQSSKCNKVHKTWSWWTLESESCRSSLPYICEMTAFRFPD
Nature of the assay: co-IP; anti-V5 tag mAb magnetic beads with concentrated sCD72 conditioned media or control media and activated CD4+ T cells or their lysate, 4°C; washed in 50 mM Tris-HCl pH 7.5, 150 mM NaCl, 0.05% NP-40; elution with V5 peptide; western blot. Background: In western blotting, separated proteins are transferred to a membrane and probed.

For assay [2], the target named is T1, soluble CD72 (extracellular part of human CD72, amino acids 117-359, V5 and 8xHis tagged) (human). The description is as above. This is another data set of the same source.

Read-outs that look alike come from different tables or passages of the source. No constants are given. Whether binding was seen depends on the method and setting. In cells and extracts the contact can be indirect. Some binding calls cover weakened binding; strength is not graded here. Where a sequence is shown, tags or fusion partners need not be part of it.

“CD100/Sema4D (from UniProt Q92854 22-862)”: in assay [1], the binding result was “no binding”.

B1: CD6 (receptor, UniProt P30203 18-668)
chain: HPSPAPPDQLNTSSAESELWEPGERLPVRLTNGSSSCSGTVEVRLEASWEPACGALWDSRAAEAVCRALGCGGAEAASQLAPPTPELPPPPAAGNTSVAANATLAGAPALLCSGAEWRLCEVVEHACRSDGRRARVTCAENRALRLVDGGGACAGRVEMLEHGEWGSVCDDTWDLEDAHVVCRQLGCGWAVQALPGLHFTPGRGPIHRDQVNCSGAEAYLWDCPGLPGQHYCGHKEDAGAVCSEHQSWRLTGGADRCEGQVEVHFRGVWNTVCDSEWYPSEAKVLCQSLGCGTAVERPKGLPHSLSGRMYYSCNGEELTLSNCSWRFNNSNLCSQSLAARVLCSASRSLHNLSTPEVPASVQTVTIESSVTVKIENKESRELMLLIPSIVLGILLLGSLIFIAFILLRIKGKYALPVMVNHQHLPTTIPAGSNSYQPVPITIPKEVFMLPIQVQAPPPEDSDSGSDSDYEHYDFSAQPPVALTTFYNSQRHRVTDEEVQQSRFQMPPLEEGLEELHASHIPTANPGHCITDPPSLGPQYHPRSNSESSTSSGEDYCNSPKSKLPPWNPQVFSSERSSFLEQPPNLELAGTQPAFSAGPPADDSSSTSSGEWYQNFQPPPQPPSEEQFGCPGSPSPQPDSTDNDDYDDISAA
Turning to B1, the binding entry in assay [2] is “binds”.
